# Assay results from PubChem BioAssay AID1347423 (Functional Genomics Laboratory (NCATS/FGL), 2020).
# Hit rate of the full screen: of about 52,000 sequences, about 210 (0.4%) were called active.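 How the source made its calls: active means gene whose silencing raises cell survival under the drug, median off-target-corrected z-score across its silencing RNAs 2 or more; inactive means the rest.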 Some of the results follow.
# Assay: Resistance to Poly (ADP-Ribose) Polymerase inhibitor: Gene Identification via Genome-wide siRNA Screen
# Details: mouse BRCA2 R2336H ES cells, olaparib, CellTiter-Glo viability; stronger effect = higher value
# Procedure, shortened: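 Mouse BRCA2 R2336H ES cells were reverse-transfected with siRNA (20 nM final), treated at 48 h with 500 nM olaparib, and read by CellTiter-Glo after 72 h. Scores: MAD-based z per siRNA, median per gene, seed off-target correction.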
row,Sequence,z-score
1,GGAGCACUUAGAAAUGUCCTT against Olfr342,inactive: 0.0319
2,GGACCCUUAUGACCCUCAUTT against Irf3,inactive: 1.96
3,GGACUAUCAUCUGAUGCCATT against AW545966,inactive: 0.851
4,GGGAAAGACUCAAGGUCCUTT against Olfr586,inactive: 0.976
5,GGAUUUAUUUGCCAACACUTT against 4732495G21Rik,inactive: -0.0888
6,UUUAUACCAAUGCUGUACGTT against LOC384639,inactive: -0.344
7,GGUCAAGUUCGCCAUUAAATT against 2310022A10Rik,inactive: 0.252
8,GGAUGUUGUAGCAGCUGCGTT against Olfr353,inactive: -0.284
9,GGGAAUGUAGACAUGGAAUTT against Tas1r3,inactive: 0.84
10,GGAGAGAGUUGUUCAGUUATT against Olfr619,inactive: -0.775
11,GGAUAGACUUGAUUCUUGGTT against Emid1,inactive: -0.665
12,GGGAAAGGGUUUUUUAUUCTT against Slc1a1,inactive: -0.097
13,GGGAGAGCUGGCUAAAUGATT against Spnb4,inactive: -2.14
14,CGAGCAAGCUUCUACAUACTT against AI182371,inactive: -2.79
15,GGUAAUUGAGUUUGACGAUTT against Ptprf,inactive: 0.649
16,GGAUGUUGUAGAUGCUUUGTT against Cte1,inactive: 2.78
17,CCUCUAGACCGAAUGAAAATT against Zfyve16,inactive: 0.664
18,GCUUCGCUUUUAGGUAUAUTT against Rpl27,inactive: -2.73
19,GGCCCUCACAAUGAAUAUGTT against Efs,inactive: -0.583
20,GGGCAGGAAAAAAAAUUCATT against C330002D13Rik,inactive: -0.0763
21,GGGUGUCGUUCUGGUUUGUTT against Tmem27,inactive: -1.45
22,GGUGAAGUCUCCAAAGAGUTT against Ms4a4d,inactive: 0.403
23,GCCUCUCUGGUGAACUUAGTT against Ccar1,inactive: 0.393
24,GGAAACAGCCCACUGGAAATT against Ndufs2,inactive: 0.581
25,GGCACUUACUGUGAAAUUGTT against Smbp,inactive: -1.37
26,GCGAGAAGGAUUCACCUUCTT against Apg7l,inactive: 1.12

row,Sequence,z-score
1,GGCUUCUUCACUGAAAUUCTT against 1700074P13Rik,inactive: 0.277
2,GGACAUUUUUCAUUUGUGATT against Zfhx4,inactive: 0.499
3,GGAUUCUGAAAUCAGUGCUTT against Capn8,inactive: 0.244
4,GGAAACCUGUGUAUGAUUGTT against Olfr1022,inactive: -0.373
5,GCCCGAAUUUGAUAAACAGTT against BC049816,inactive: 2.41
6,GGAAGAAUCAAAAACCUUCTT against Ddit3,inactive: 0.75
7,GGACGUAACAAAAUGUUCUTT against P2ry12,inactive: -0.253
8,GGGACUUGAGUAGCUGACUTT against Sgta,inactive: 0.0123
9,GGAGAAGAGCAUGCCUUUCTT against Lgals6,inactive: -0.647
10,CGGUAUUAGUAGCAAUGGUTT against 2310005G13Rik,inactive: -0.34
11,CCGUAAGAAGGAAAACGCATT against Kcnd1,inactive: 1
12,CCUUCUGGUGCUUUUAGAGTT against Tlm,inactive: 0.431
13,GGAGCUUCUUUUCCCUCUATT against Gcgr,inactive: -0.142
14,GGCGAUAACUGUCGAUACUTT against Mkrn1,inactive: 0.107
15,GGAAUCAACUUGGUGGCUCTT against Rxrg,inactive: 0.659
16,GGACAGUGCUCGAAACCGATT against BC004728,inactive: 3.8
17,CCUUUUUCGGCUUGUAUAATT against Tnfsf6,inactive: -0.769
18,GGAGCUCGUGUAAAUGCCATT against A130096K20,inactive: 0.659
19,GCACAAGACUUUAUAACCATT against 1810012H11Rik,inactive: -1.41
20,GGCUAAAGAACAUGAUACCTT against Sema4a,inactive: 0.793
21,CGGUUCAUCUGGGAGUAUGTT against Rerg,inactive: -1.67
22,GGGUUUUGAAACAUGCAGGTT against Cd44,inactive: 0.793
23,CCGGAAGAGCUUGCUUUAUTT against MGC59240,inactive: -1.39
24,CGACAAGGAAAGUUGAUGUTT against Hdac3,inactive: 1.33
25,GCAGUUGCUAUGUUCUAUATT against Olfr1257,inactive: 2.13
26,GCGAGCUGUAAAUGGAUCUTT against Gpr30,inactive: -0.641

row,Sequence,z-score
1,GGAUGACAAAAAUUUCAAGTT against St14,inactive: 0.5
2,GCAACACGAAUAUCACAGGTT against Hadha,inactive: 0.719
3,GCACCGAAUGCACAAUCUCTT against D4Ertd196e,inactive: 0.962
4,GCAAGGGCAAGUCCACAAATT against Gjb3,inactive: -1.07
5,CCCACUUGCUGAAAAUUGUTT against Ankib1,inactive: -0.289
6,GGAUUGCUCAGUAUUCUACTT against V1rb2,inactive: -0.606
7,GCUAUACACUUGGCCCAUUTT against 6330577E15Rik,inactive: 0.201
8,GGAUUUAAGUGCCCGGUAUTT against D6Ertd365e,inactive: 0.776
9,GGAUGAUGAGUUUUUCCAUTT against 9030407H20Rik,inactive: 0.0546
10,GCAACACAAGUCAUGAAGUTT against Gabpb2,inactive: 0.0422
11,CCUCUUAAACAUGUCCUAGTT against Atp6v0a2,inactive: 0.805
12,GCCAACAAUUUGAAGAACGTT against Spats1,inactive: -0.382
13,GCUUUACGCAUCCUACGUGTT against Ftmt,inactive: 1.08
14,GCGGAAAGGCCAAACGAUUTT against Inhbb,inactive: -0.766
15,GGAAAGAUUCAAAGAACCUTT against Rpia,inactive: -1.71
16,GGGUCAAACGACUUAGAAATT against Col5a2,inactive: 0.783
17,CCUUCUGUAUAGGUUCUGGTT against Slc41a3,inactive: 1.17
18,AUGGAAAAAGUGCACAAUCTT against Olfr1061,inactive: 0.0751
19,GGACAAUGAGCUCUCCUUCTT against Abi3,inactive: 0.0643
20,GGACAGACAGGUCUAGUUATT against Gm1100,inactive: 0.0667
21,GGGCUGACUAUUAUUUCAGTT against Cysltr2,inactive: -0.497
22,GGCAGGAUAUGUAUUCUGATT against Cecr6,inactive: -0.0802
23,GGAUAUCUUCAUAUUGGUGTT against AU018778,inactive: -0.334
24,ACUUCCUGACUGAGAGACATT against Olfr485,inactive: 1.76
25,GCCGUGGAUGUCAUUUACUTT against AV216087,inactive: 0.473
26,GGAGGAUAGAUUUAUGUAUTT against 6030446N20Rik,inactive: -0.62

# Five entries drawn at random from those above:
row,Sequence,z-score
3,GGAUUCUGAAAUCAGUGCUTT against Capn8,inactive: 0.244
23,GCCUCUCUGGUGAACUUAGTT against Ccar1,inactive: 0.393
18,GGAGCUCGUGUAAAUGCCATT against A130096K20,inactive: 0.659
25,GCAGUUGCUAUGUUCUAUATT against Olfr1257,inactive: 2.13
22,GGCAGGAUAUGUAUUCUGATT against Cecr6,inactive: -0.0802

# No new results follow: entries from further up.
row,Sequence,z-score
22,GGCAGGAUAUGUAUUCUGATT against Cecr6,inactive: -0.0802
23,GGAUAUCUUCAUAUUGGUGTT against AU018778,inactive: -0.334
24,ACUUCCUGACUGAGAGACATT against Olfr485,inactive: 1.76

# Remaining list, next part.

row,Sequence,z-score
1,GGUUAUCCCAGCUACCACATT against 9630013D21Rik,inactive: -1.01
2,CCUCCUCUAUACAAACAUGTT against Gpr109b,inactive: 0.459
3,CCUUGCAUUACUUCUAAAUTT against Fmr2,inactive: 1.01
4,GGGCUGCUAUUUUGAUGGUTT against Chrd,inactive: -0.566
5,GGGCAUGUACUAUGAGCCATT against 2310051M13Rik,inactive: -1.44
6,CGAAUUCUCUACCAGUUUUTT against Psd4,inactive: 0.497
7,CCAUGUUAAUCCUGACAGCTT against Phf16,inactive: 0.772
8,GGAAGAAAAAAAAUCUCCATT against Frmd3,inactive: -0.809
9,AAAAGUUAAUCAUCCGGCATT against Olfr732,inactive: -0.232
10,GGUCAUCCUCAAGAUGAAGTT against 4933405K07Rik,inactive: 0.31
11,GGAGGUGGAUCAUAUGACUTT against BC023296,inactive: 1.01
12,GGCACUGAGACUUGAUACATT against A230091H23,inactive: -1.1
13,GCUAGAAGCUUUCUAUUCUTT against Hsp105,inactive: 2.73
14,GGAUGCAGAUGUACAACUCTT against Slc25a28,inactive: -0.452
15,UACCUUGGGUUCUAAGGCATT against BC023754,inactive: 1.09
16,GCUUGUGUCACCUACGGAATT against 1700007D05Rik,inactive: 0.142
17,GGAUUUCAAAACCGACUUGTT against H3f3b,inactive: -1.46
18,CCUCGUAAGACUGUAAAAGTT against Neurog2,inactive: -0.0869
19,GCAGAUCACCUUUUGUUUATT against Gdap2,inactive: -0.803
20,CCCUCUCCUCAGAUAUACUTT against Grasp,inactive: 0.375
21,GGAGCAAGACAACAAAGAUTT against Cd97,inactive: -0.294
22,CCCAAUUUUUAGUUGCUAATT against Rab2b,inactive: -0.321
23,GGAAGUGAAAGGUAAAUAGTT against Dia1,inactive: 0.317
24,GCCGUGUUUACAGAAUGUUTT against Nkx2-2,inactive: -0.536
25,GGGAUUCUACUGUGUGUGATT against Gpr82,inactive: -0.452
26,CGAUUUCCCAAGUUAUUACTT against Nxf1,inactive: -2.99
